Assay results published in article PMC5686067.
No constants are given. Whether binding was seen depends on the method and setting.

Molecular target: sNlpI-ΔN (E. coli) (UniProt P0AFB1)
Assay: AUC; sedimentation velocity, absorbance optics, 20 mM Tris-HCl pH 8.0, 100 mM NaCl, 2 mM DTT, 20 °C, c(s) model in Sedfit; both purified

B1: sNlpI-ΔN (domain or fragment, UniProt P0AFB1 37-294)
chain: TLQQEVILARMEQILASRALTDDERAQLLYERGVLYDSLGLRALARNDFSQALAIRPDMPEVFNYLGIYLTQAGNFDAAYEAFDSVLELDPTYNYAHLNRGIALYYGGRDKLAQDDLLAFYQDDPNDPFRSLWLYLAEQKLDEKQAKEVLKQHFEKSDKEQWGWNIVEFYLGNISEQTLMERLKADATDNTSLAEHLSETNFYLGKYYLSLGDLDSATALFKLAVANNVHNFVEHRYALLELSLLGQDQDDLAESDQQ
binding: no binding
